# According to PubChem BioAssay AID1508600 (Functional Genomics Laboratory (NCATS/FGL), 2020):
# In all, about 53,000 sequences went through this assay and about 3,700 (7%) were called active.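 The calls were made as follows: active = gene knockdowns whose robust z-score for IL-1 alpha signal is at least 2 or at most -2, so actives lie on both sides; inactive = the rest.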 The list shows a part of the results.
# Assay: Components of the Cytosolic LPS Sensing Pathway: Gene Identification via Genome-wide siRNA Screen;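 also: robust z of the log signal after scaling to non-targeting control siRNA wells of the plate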
# Details: RAW264.7 macrophages, IL-1a HTRF, actives lie on both sides, screened at 100 nM (by protocol), cells primed 5 h with Pam3CSK4 first
# In short: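 Knockdown: 100 nM siRNA, 48h, RAW264.7. Stimulation: Pam3CSK4 5 h, then LipidA via TransIT-TKO 24 h. Output: supernatant IL-1a HTRF, negative-control-normalized, log robust z-score; viability by CellTiter-Glo.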
row,Sequence,z-score
1,GGUAUCUGACCUCUUAAAATT against Olr1,inactive: 0.321
2,GGCCCAUAUUUUAUUACCGTT against Galns,inactive: -1.84
3,GGACAUCUGUGUUAAAUUUTT against Npy1r,inactive: -0.47
4,GGACGGCAAAGCGUACUGUTT against Pxn,inactive: -0.763
5,GGCACUGAGACUUGAUACATT against Spink10,inactive: -0.177
6,GGCUCUUUUGAUCACCAAUTT against Abcc1,inactive: -1.55
7,GGUCCAGAAGAAUUAUGAATT against Pam16,inactive: -0.553
8,CCUGCAAGACAUUUCUCAGTT against Gm1968,inactive: -1.26
9,GCGGGAGAGCUAUGAAACATT against Mrps21,inactive: -0.0502
10,CUGUAAGGCGGAUAAGACCTT against Pantr1,inactive: -1.42
11,GAGUCAUUACACCAGACAGTT against Gm5533,inactive: 0.0787
12,GGAGAAGUUCUGAACUGCUTT against Ice1,inactive: -1.36
13,GGGAGUUCUCUAAAUGCUUTT against Olfr482,inactive: 1.52
14,CCUAGGAAUCCUUGAUGAUTT against Bmp8b,inactive: 0.14
15,CGACACACCAGAACGAAUCTT against Cmtm8,inactive: -0.424
16,CGGAGAUUGUCCAAUGCAUTT against Hid1,inactive: 0.199
17,GCCACUCAUAUUGAUCCAUTT against Prss34,active: -2.31
18,CCAAAAUCAUAGAUGGAGUTT against Postn,inactive: 0.0946
19,GGAUGGAUUGCUGGUUACATT against Vwa3a,inactive: -0.336
20,GGAACGAGAAUCGGAGAUGTT against Mapk8ip3,active: 2.92
21,GGUACCUAGGAUGCUCUCATT against Ift140,active: -2.23
22,GGAAGAAAUUUUUCGUUGATT against Gldc,inactive: -0.71
23,GGCACUCAACACCUGUAUATT against Olfr640,inactive: -1.34

row,Sequence,z-score
1,GGAUGUGGCAUCCUACCACTT against Bfsp2,inactive: -0.675
2,GGCAGAAUCUAAAGACCAATT against Aldh8a1,inactive: 0.844
3,GCUUUAUGAGUUCACGGAGTT against Prkab2,inactive: 1.02
4,GGAUCGAUCUGACAUCAAATT against Epyc,inactive: -0.31
5,GGAGAGAUCAUACACUUUGTT against BC048679,inactive: 0.43
6,CGAUAAAACAGAACAUAGUTT against Stxbp4,inactive: 0.551
7,GGGCUGUUUGUAGCAGAUUTT against Olfr1279,inactive: -1.12
8,GGUGGGCACUCUGGUUUUUTT against Eif4e,active: 4.66
9,GCACAAGACUCUUUCAGUUTT against Lipa,inactive: -0.948
10,GGCUACGCAGCGAAGAAAATT against Rpl32,inactive: 1.32
11,GCUCAUGAUUACUGCCAAUTT against Olfr1305,inactive: 0.643
12,GGAUGAUGAAAUUGGAGAUTT against Cct5,inactive: -0.373
13,GGACGUGGAAAACCACAGUTT against Nphp4,inactive: 0.0474
14,GGAUUCUUACCCAACUUUUTT against Usp49,inactive: -0.112
15,GCAAAUGCGACUUUACACATT against Top1,active: 2.56
16,CCUACGAGGAUACUUACAATT against Kif18b,active: 2.81
17,GGACACUGGGCGAAUAGUGTT against Cdkl3,inactive: -1.2
18,GGACAGAUGAACUUCAAUGTT against C1galt1,inactive: -0.411
19,GCGUACGUGGACUUAACUCTT against Gtf2a2,inactive: 0.65
20,GGACCUGUGUGUUCUUUGATT against Amhr2,inactive: -0.505
21,GGAGCUUGUUCGAGAUCCATT against Insl5,inactive: -1.44
22,GGAGAAAUGAAGAUUGUGGTT against Tmem218,active: -2.31
23,GGCACUUCAGAGCAAAUUGTT against Slc16a4,inactive: -0.571

row,Sequence,z-score
1,GCUUAUGAACCUCAGAGGGTT against Tex19.1,inactive: -0.234
2,CCACCUACGUCAACACUAATT against Kcnh6,inactive: -1.8
3,CGUGGACUAAAAGUUUUCATT against Mmp12,active: 3.63
4,GGUACAUUUUAUACUGGAGTT against Zfp277,inactive: 0.163
5,GGGAGUAGCUCUAUUCAGATT against 2610044O15Rik8,inactive: -0.775
6,GGGACACGAACUCUCCAAUTT against Ywhab,inactive: 0.441
7,CCUGAUACCCAAAGACUCATT against Dnaic1,inactive: -1.38
8,GGAGAUCAUGGAGAAAGGCTT against Nacc1,inactive: 0.599
9,GCAAAACUGGCUGUCAGUATT against Rnf24,inactive: -0.779
10,CCAAGGAAUGUUGUGUUUATT against Hspa4l,inactive: -0.397
11,CGUAAUUGAUAAAACGGGATT against Gm4792,inactive: 0.344
12,GCGCAAAUACAUUGAGGAUTT against Slc17a7,inactive: 0.451
13,GGUUGGUAGUCCUUUAAGATT against Tspyl3,inactive: 0.332
14,GCUUUUAGGCCAUUAUCAGTT against Ddx46,inactive: -1.78
15,GGAAUAUUGUGCAUCAAAGTT against Dennd1c,inactive: 0.806
16,GGAGUGUAUGCAGAAGUUUTT against Dnajc24,inactive: 1.49
17,GGCAAACGAUAAAGAAAUCTT against Ptp4a2,inactive: 1.58
18,GCCCUUUUCAGGGAAAACUTT against Myh8,inactive: 1.06
19,GCCCAUUCAAACUAUCUAUTT against Ttk,inactive: -0.493
20,GGGUUUGUCAUCACUGUCUTT against Bdkrb1,inactive: -1.4
21,GGAGAUUCAGAAGAUCCUCTT against Isoc2b,active: 2.49
22,GGUUGAAGACUUCUUACUUTT against Cdc25a,inactive: 0.567

# A second format for part of the listing above:
row | Sequence | z-score
12 | GCGCAAAUACAUUGAGGAUTT against Slc17a7 | inactive: 0.451
13 | GGUUGGUAGUCCUUUAAGATT against Tspyl3 | inactive: 0.332
14 | GCUUUUAGGCCAUUAUCAGTT against Ddx46 | inactive: -1.78
15 | GGAAUAUUGUGCAUCAAAGTT against Dennd1c | inactive: 0.806
